{
  "source": "patent US20100150884A1",
  "about": "“Anticancer Agent to Be Combined with Telomelysin” (priority 2005, published 2010)",
  "key": {"A549 lung cancer cell [1]": {"test_system": "A549 lung cancer cell", "test": "Adenovirus infection efficiency, replication-incompetent lacZ gene-expressing adenovirus", "assay_type": "cell-based, human", "details": "FR901228 0.1 and 1 ng/ml, 48-hour treatment; adenovirus at 1 and 10 MOI"}, "hematopoietic cells": {"test_system": "hematopoietic cells", "details": "cited from earlier work"}, "[2]": {"test_system": "Human lung cancer cell A549", "assay_type": "cell-based"}, "adenovirus receptor CAR": {"test_system": "adenovirus receptor CAR", "test": "CAR expression by flow cytometry", "assay_type": "cell-based, human", "details": "FR901228 1 ng/ml, 48 hours"}, "A549 lung cancer cell [3]": {"test_system": "A549 lung cancer cell", "test": "OBP-401 infection efficiency, GFP expression by flow cytometry", "assay_type": "cell-based, human", "details": "FR901228 0.5 and 1 ng/ml, 48-hour treatment; OBP-401 0.1 MOI; 72 hours from infection; dose-dependent"}},
  "note": "For at least one compound, name, drawing or mass did not settle the structure.",
  "data": [
    {"smiles": "C/C=C1\\NC(=O)[C@H]2CSSCC/C=C/[C@H](CC(=O)N[C@H](C(C)C)C(=O)N2)OC(=O)[C@H](C(C)C)NC1=O", "note": "[FR901228]", "values": [
      {"measurement": "adenovirus infection efficiency (lacZ expression)", "setting": "A549 lung cancer cell [1]", "result": "enhanced in a dose-dependent manner"},
      {"measurement": "adenovirus infection", "setting": "hematopoietic cells; FR901228-treated hematopoietic cells", "result": "becomes easy"},
      {"measurement": "acetylation of H3 histone", "setting": "hematopoietic cells; hematopoietic cells", "result": "promotes"},
      {"measurement": "coxsackievirus and adenovirus receptor (CAR) level", "setting": "hematopoietic cells; hematopoietic cells", "result": "raises"},
      {"measurement": "αv integrin level", "setting": "hematopoietic cells; hematopoietic cells", "result": "raises"},
      {"measurement": "antitumor effect (cell viability)", "setting": "[2]; FR901228 0.01-5 ng/ml, day 4", "result": "dose-dependent antitumor effects"},
      {"measurement": "synergistic effect by isobologram", "setting": "[2]; FR901228 combined with Telomelysin (OBP-401), day 4 of infection", "result": "act synergistically"},
      {"measurement": "CAR expression", "setting": "adenovirus receptor CAR; A549 cells", "result": "enhanced"},
      {"measurement": "CAR expression", "setting": "adenovirus receptor CAR; H358 cells", "result": "no change"},
      {"measurement": "CAR expression", "setting": "adenovirus receptor CAR; H460 cells", "result": "enhanced"},
      {"measurement": "CAR expression", "setting": "adenovirus receptor CAR; H1299 cells", "result": "no change"},
      {"measurement": "GFP expression (infection and replication of OBP-401)", "setting": "A549 lung cancer cell [3]", "result": "enhancement of GFP expression"}
    ]}
  ]
}
